# Out of some 47,000 compounds screened, about 200 (0.43%) were called active. Inconclusive means that the source gave no clear call. Such entries were picked first, then a sample of the others.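 Rule for the calls: active = inhibition of aggregate fluorescence above about 70%, also judged a hit by eye on the cell image (limit read from the data, passing the limit was not always enough); inconclusive = no rule stated for this call; inactive = not judged a hit on image review.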
# Assay: clearance of mutant huntingtin inclusions, primary screen, imaging, HeLa Exon1htt(103Q)mCFP, confocal imaging (AID 853);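 note: cells exposed to compound for three days before fixation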
# Details: aggregate imaging, at 1.5 µM, hits give high values, zero = plate's median compound well
row,Compound,inhibition
1,c1ccc(-c2cnc(-c3cccnc3)o2)cc1,inconclusive: 82.2%
2,CCCc1cc(C(=O)NCc2cccs2)no1,inactive: 21.7%
3,COc1cccc(=O)c2c(C)oc(C)c12,inconclusive: 86.1%
4,Cc1ccc(C(=O)Cn2nnc3ccccc32)cc1,inactive: -24.7%
5,COc1ccc(-c2cc(C(F)(F)F)n3nc(C(=O)N4CCCCC4)cc3n2)cc1OC,inconclusive: 82.6%
6,CCOC(=O)C1CCN(C(=O)c2ccccc2NC(C)=O)CC1,inconclusive: 94.9%
7,CCOc1ccc2ccccc2c1CNCCN1CCOCC1,active: 70%
8,COc1ccc(NS(=O)(=O)c2ccc(OCC(=O)N3CCCC3)cc2)cc1,inconclusive: 77.7%
9,COCCNC(=O)C(=O)Nc1ccc(Br)cc1,inactive: -50.4%
10,CCn1nc(NC(=O)c2cccnc2)c2cc3cccc(C)c3nc21,inconclusive: 70.4%
11,CN1CCN(Cc2ccc(OCc3ccccc3)cc2)CC1,inconclusive: 80.8%
12,O=C(CSc1nc2c(c(=O)[nH]1)CCC2)Nc1cccc(Cl)c1,inactive: 36.7%
13,CCC(Sc1nnnn1-c1ccccc1)C(=O)NC(C)c1ccccc1 (configuration not stated),active: 71.2%
14,c1ccc(Nc2nc(N3CCOCC3)nc(N3CCOCC3)n2)cc1,inconclusive: 71%
15,O=c1c2[nH]c3ccccc3c2ncn1Cc1ccncc1,inconclusive: 83%
16,CC1(C)NC(=O)N(CC(O)Cn2nnc3ccccc32)C1=O (configuration not stated),inactive: 11%
17,CC1=CC(C)(C)N(C(=O)CSc2nccn2C)c2cc(C)ccc21,inactive: 26.1%
18,Cc1nc(SCC(=O)Nc2c(C)nn(C)c2C)c2cnn(-c3ccccc3)c2n1,inconclusive: 85.3%
19,CCc1ccc(C(=O)CN(C#N)c2nc(C)cc(C)n2)cc1,inconclusive: 82.8%
20,COc1cccc(N2CCN(C(=O)c3[nH]c(C)c(C(C)=O)c3C)CC2)c1,inactive: 17.2%
21,Cc1ccc(NS(=O)(=O)c2cc(C(=O)O)ccc2Cl)c(C)c1,active: 72.4%
22,CCCC1(C(=O)OCC)NC(c2ccc(N(C)C)cc2)C2C(=O)N(c3ccc(OCC)cc3)C(=O)C21 (configuration not stated),inactive: -65.8%
23,CCCn1c2c(c(O)c(C(=O)NCCCN(CC)CC)c1=O)CCCC2,active: 74.2%
24,CC(=O)Nc1cc(NC(C)=O)cc(C(=O)NC(C)(C)C)c1,inactive: -29.6%
25,CC(C)Oc1ccc(CNCCC2(C(C)C)CCOC(C)(C)C2)cc1 (configuration not stated),inconclusive: 80.6%
26,Cc1ccc(NS(=O)(=O)c2cc(C(=O)N3CCN(C)CC3)ccc2C)cc1,inactive: 24.9%

row,Compound,inhibition
1,CN(C)S(=O)(=O)c1cccc(COC(=O)C2=COCCO2)c1,inactive: -12.7%
2,CC1=C(CC/C(C)=N/NC(N)=S)C(C)(C)CCC1,inactive: -35.2%
3,Cc1noc(C)c1CSc1nc2ccccc2c(=O)n1-c1ccc(F)cc1F,inconclusive: 71.4%
4,CC(C)NC(=O)Cn1c(SCC(=O)N2CCCCCC2)nc2ccccc21,inactive: 11.4%
5,COc1ccc(N2CCN(Cc3cc(=O)oc4cc(C)c(Cl)c(C)c34)CC2)cc1,inactive: 7.5%
6,COc1cc(/C=N/NC(=O)CCc2c(C)n[nH]c2C)cc(OC)c1OC,inactive: 35%
7,Cc1cc(-c2nnc(SCc3ccccn3)o2)no1,inactive: 47.9%
8,CC12CCC(C(=O)NCc3ccc4c(c3)OCO4)(OC1=O)C2(C)C (configuration not stated),active: 70.6%
9,COCCCNC(=O)C1CC(=O)N(C2CCCC2)C1 (configuration not stated),inconclusive: 83.1%
10,COc1ccccc1-c1cc(C(=O)NCc2ccc(Cl)cc2)no1,inactive: 21.3%
11,NS(=O)(=O)c1ccc(NC(=O)Cn2ncc3c2-c2ccccc2OC3)cc1,inconclusive: 77.4%
12,Cc1nnc(SCC(N)=O)n1CCc1ccccc1,active: 71.4%
13,COC(=O)c1[nH]c2ccc(C)cc2c1NC(=O)C(C)N1CCN(C2CCCCC2)CC1 (configuration not stated),inactive: -13.4%
14,CC(=O)Nc1ccc(S(=O)(=O)N2CCCN(S(=O)(=O)c3ccc(NC(C)=O)cc3)CC2)cc1,inconclusive: 74.7%
15,COc1ccc(S(=O)(=O)N2CCc3ccccc32)cc1C(=O)OCc1nnc(-c2ccccc2)o1,inactive: -16.5%
16,N#CC(c1ccc(F)cc1)c1ccc(C(=O)c2ccc(F)cc2)cc1 (configuration not stated),inconclusive: 83.7%
17,CC(C)[C@H](NC(=O)[C@@H]1CSCN1C(=O)OC(C)(C)C)C(=O)NCC1CCC(C(=O)O)CC1 (some centres not stated),active: 76.4%
18,O=C(O)CCC(=O)OCC1CCCCC1,inconclusive: 70.4%
19,Cc1cn(C2CC3OCC3O2)c(=O)[nH]c1=O (configuration not stated),inactive: 1.5%
20,COc1ccccc1-c1cc(C(=O)NCCc2ccccc2)no1,active: 78.6%
21,CCCCn1c(SCC(=O)NCc2ccco2)nc2c1c(=O)n(C)c(=O)n2C,inconclusive: 78.3%
22,COc1ccc(CCN(Cc2cccs2)S(=O)(=O)c2ccc(-n3cnnn3)cc2)cc1OC,inactive: 59.7%
23,O=C(O)CC(c1ccccc1)c1ccccc1,active: 85.7%
24,Cc1cc(C)nc(N2CCC(C(=O)Nc3nnc(C)s3)CC2)n1,inactive: 6.7%
25,Cc1cc(C)nc(/N=C2\NC(=O)CC(C(=O)O)N2c2ccc(Oc3ccccc3)cc2)n1 (configuration not stated),inconclusive: 86.2%
26,CCCCOC(=O)n1c(=O)oc2cc(S(=O)(=O)N3CCCCC3)ccc21,active: 72.3%

row,Compound,inhibition
1,CC(NC(=O)CSc1nc2sc3c(c2c(=O)n1-c1ccccc1)CCCC3)c1ccccc1 (configuration not stated),active: 91.2%
2,CCCOC1(NC(=O)c2ccccc2)C(C)=CC(=O)C=C1C,inconclusive: 89.2%
3,COc1ccccc1NC(=O)CC1C(=O)NCCN1C(=O)Nc1ccc(Cl)c(Cl)c1 (configuration not stated),inactive: -50.1%
4,CCOC(=O)C1=C(C)NC2=C(C(=O)CCC2)C1c1ccsc1 (configuration not stated),inactive: -12%
5,O=C(Nc1ccccc1)N1CCOCC1,inactive: 2.7%
6,Cc1c(C(=O)NCc2cccnc2)oc2ccc(S(=O)(=O)N3CCCCC3)cc12,inactive: 0.3%
7,COc1ccc(CN(C(=O)c2cnccn2)C(C(=O)NC(C)(C)C)c2cc(OC)c(OC)c(OC)c2)cc1 (configuration not stated),active: 70.4%
8,Cn1c(CO)cnc1SCc1ccccc1,active: 71.7%
9,Cc1cc(C)n(-c2c(F)c(F)c(COC(=O)c3ccccc3)c(F)c2F)n1,inactive: -56.6%
10,O=S(=O)(c1ccc(F)cc1)N(CCO)CC(O)Cn1c2ccccc2c2ccccc21 (configuration not stated),inactive: -6.1%
11,CCOCCCNC(=O)N[C@@H](C)C(=O)OC,inactive: 55.7%
12,COc1ccc(NC(=O)C2CCN(S(=O)(=O)c3c(C)noc3C)CC2)cc1Cl,inactive: -30.5%
13,Cc1cccc2cc(CN(CC3CCCO3)C(=O)NC3CCCCC3)c(=O)[nH]c12 (configuration not stated),inconclusive: 70.4%
14,CC1=CCC(Cc2nc3ccccc3o2)C1(C)C (configuration not stated),active: 76.9%
15,O=C(CCCn1c(=S)[nH]c2ccccc2c1=O)N1CCCCC1,active: 72.6%
16,O=C(NCC1CC1)C1CCCN(S(=O)(=O)c2ccc(-n3cnnn3)cc2)C1 (configuration not stated),inconclusive: 71.7%
17,Cc1ccc(Cn2c(NCCc3ccccc3)nc3c2c(=O)n(C)c(=O)n3C)cc1,active: 71.2%
18,O=C1c2ccccc2N2C(=O)c3ccccc3C2N1Cc1ccco1 (configuration not stated),inconclusive: 72.2%
19,CCc1nnc(NC(=O)CSc2nnc(-c3c[nH]c4ccccc34)n2CC)s1,inconclusive: 86.1%
20,Cc1c(N=C2NC(=O)C(CC(=O)Nc3ccc(Cl)cc3)S2)c(=O)n(-c2ccccc2)n1C (configuration not stated),active: 70.5%
21,CC1=C(C#N)C(NC(=O)c2ccco2)(C(F)(F)F)C(=O)N1 (configuration not stated),inactive: 38.2%
22,Cc1cc(C)n(CCc2nc(-c3cccs3)cs2)n1,inconclusive: 74.6%
23,COCCCn1c(SCC(=O)Nc2nnc(C)s2)nnc1-c1ccoc1C,active: 77.6%
24,Cc1cc2ncn(S(=O)(=O)c3ccc(S(=O)(=O)N4CCCCCC4)cc3)c2cc1C,active: 71.4%
25,CN(C)c1nc(SCC#N)nc(N(C)C)n1,active: 72.2%

# Of the compounds above, two have a CF3 group:
row,Compound,inhibition
5,COc1ccc(-c2cc(C(F)(F)F)n3nc(C(=O)N4CCCCC4)cc3n2)cc1OC,inconclusive: 82.6%
21,CC1=C(C#N)C(NC(=O)c2ccco2)(C(F)(F)F)C(=O)N1 (configuration not stated),inactive: 38.2%

# Reference: PubChem BioAssay AID853 (Columbia University Molecular Screening Center, 2007)
